The list is a part of this screen's results and no random one: it gathers tests that were run many times, whatever their T/C, doses with no T/C, and many T/C values between a quarter and a half above the control. Further doses and runs are listed elsewhere. T/C: endpoint of the treated group in % of that of the vehicle group. Schedule codes are those of the source, taken here to give the interval after Q, in days (D) or hours (H), and the number of doses after X. Some entries were tested several times; the values are given in rising order. Some T/C values are followed by the survivors on the day toxicity was checked, most often the fifth; without a count, all were alive then. Some doses have a count of surviving animals in place of a T/C: the source holds a T/C of zero for them, seemingly a mark for toxic or unscored doses. Survivors were counted at the toxicity check, usually on the fifth day, unless a day is given; later deaths do not show.
System: BDF1 mice, colon carcinoma 38 sc, T/C %
Assay: NCI In Vivo Anticancer Drug Screen. Data for tumor model Colon Carcinoma 38 (subcutaneous) in B6D2F1 (BDF1) mice
Procedure: The antitumor activity of compounds was measured in mice bearing transplantable tumors. Survival or tumor size were measured and the results are expressed as the measurement made in the treated group (T) divided by the measurement made in the vehicle treated control group (C). The tumor model used in this assay is Colon Carcinoma 38 (subcutaneous) in B6D2F1 (BDF1) mice

[1] = T/C endpoint: median tumor weight (est.), dose: 50.0 mg/kg/injection, schedule: Q07DX002 (ip), vehicle: Klucel (hydroxypropylcellulose) (HPC), evaluated on day 20, higher T/C = larger tumour
[2] = T/C endpoint: median tumor weight (est.), dose: 400.0 mg/kg/injection, schedule: Q07DX002 (ip), vehicle: Klucel (hydroxypropylcellulose) (HPC), higher T/C = larger tumour
[3] = T/C endpoint: median tumor weight (est.), dose: 100.0 mg/kg/injection, schedule: Q07DX002 (ip), vehicle: Klucel (hydroxypropylcellulose) (HPC), evaluated on day 20, higher T/C = larger tumour
[4] = T/C endpoint: median tumor weight (est.), dose: 25.0 mg/kg/injection, schedule: Q07DX002 (ip), vehicle: Klucel (hydroxypropylcellulose) (HPC), evaluated on day 20, higher T/C = larger tumour
[5] = T/C endpoint: median tumor weight (est.), dose: 100.0 mg/kg/injection, schedule: Q07DX002 (ip), vehicle: Klucel (hydroxypropylcellulose) (HPC), higher T/C = larger tumour
[6] = T/C endpoint: median tumor weight (est.), dose: 50.0 mg/kg/injection, schedule: Q07DX002 (ip), vehicle: saline with Tween-80, evaluated on day 20, higher T/C = larger tumour
[7] = T/C endpoint: median tumor weight (est.), dose: 100.0 mg/kg/injection, schedule: Q07DX002 (ip), vehicle: saline with Tween-80, higher T/C = larger tumour
[8] = T/C endpoint: median tumor weight (est.), dose: 400.0 mg/kg/injection, schedule: Q07DX002 (ip), vehicle: saline with Tween-80, higher T/C = larger tumour
[9] = T/C endpoint: median tumor weight (est.), dose: 200.0 mg/kg/injection, schedule: Q07DX002 (ip), vehicle: saline, higher T/C = larger tumour

## O=Cc1ccc(C=O)c(Cl)c1
T/C endpoint: median tumor weight (est.), dose: 800.0 mg/kg/injection, schedule: Q07DX002 (ip), vehicle: Klucel (hydroxypropylcellulose) (HPC), higher T/C = larger tumour
  survivor count: 6 of 10 on day 20

## CS(=O)(=O)OCCN(CCOS(C)(=O)=O)c1ccc(C=Nc2ccc(-c3csc(COc4ccccc4)n3)cc2)cc1
[1]
  T/C: 138 % of control

## COc1ccc(-c2cc(=O)c3cccc(CC(=O)O)c3o2)cc1OC
[1]
  T/C: 147 % of control
[2]
  survivor count: 2 of 10 on day 20

## NNC(=S)N/N=C/c1ccccn1
T/C endpoint: median tumor weight (est.), dose: 100.0 mg/kg/injection, schedule: Q07DX002 (ip), vehicle: suspension in saline, higher T/C = larger tumour
  survivor count: 2 of 10 on day 20

## O=CC(S)CO (stereo not drawn)
T/C endpoint: median tumor weight (est.), dose: 100.0 mg/kg/injection, schedule: Q07DX002 (ip), vehicle: suspension in saline, evaluated on day 20, higher T/C = larger tumour
  T/C: 143 % of control

## C[C@]12CCC(=O)C=C1CC[C@@H]1[C@@H]2[C@@H](O)C[C@@]2(C)[C@H]1CC[C@]2(O)C(=O)CO
T/C endpoint: median tumor weight (est.), dose: 40.0 mg/kg/injection, schedule: Q07DX003 (ip), vehicle: Klucel (hydroxypropylcellulose) (HPC), evaluated on day 20, higher T/C = larger tumour
  T/C: 141 % of control
[1]
  T/C: 129 % of control
T/C endpoint: median tumor weight (est.), dose: 80.0 mg/kg/injection, schedule: Q07DX003 (ip), vehicle: Klucel (hydroxypropylcellulose) (HPC), evaluated on day 20, higher T/C = larger tumour
  T/C: 131 % of control
[3]
  T/C: 125 % of control [9 of 10 alive on day 20]
T/C endpoint: median tumor weight (est.), dose: 320.0 mg/kg/injection, schedule: Q07DX003 (ip), vehicle: Klucel (hydroxypropylcellulose) (HPC), evaluated on day 20, higher T/C = larger tumour
  T/C: 133 % of control

## Cc1cc(N2C(=O)CCSC2=S)ccc1Cl
T/C endpoint: median tumor weight (est.), dose: 12.5 mg/kg/injection, schedule: Q07DX002 (ip), vehicle: Klucel (hydroxypropylcellulose) (HPC), evaluated on day 20, higher T/C = larger tumour
  T/C: 125 % of control
[4]
  T/C: 135 % of control
[3]
  T/C: 149 % of control
T/C endpoint: median tumor weight (est.), dose: 400.0 mg/kg/injection, schedule: Q07DX002 (ip), vehicle: Klucel (hydroxypropylcellulose) (HPC), evaluated on day 20, higher T/C = larger tumour
  T/C: 125 % of control
[2]
  survivor count: 5 of 10 on day 20 and 6 of 10 on day 20

## CC(C)NC(=O)OCc1c(COC(=O)NC(C)C)c(-c2ccc(Cl)c(Cl)c2)n2c1CCC2
T/C endpoint: median survival time, dose: 95.0 mg/kg/injection, schedule: Q01DX005 (ip), vehicle: other, higher T/C = longer survival
  survivor count: 4 of 10 on day 59
T/C endpoint: median survival time, dose: 154.0 mg/kg/injection, schedule: Q01DX005 (ip), vehicle: other, higher T/C = longer survival
  survivor count: 0 of 10 on day 59
T/C endpoint: median survival time, dose: 248.0 mg/kg/injection, schedule: Q01DX005 (ip), vehicle: other, higher T/C = longer survival
  survivor count: 0 of 10 on day 59
T/C endpoint: median survival time, dose: 400.0 mg/kg/injection, schedule: Q01DX005 (ip), vehicle: other, higher T/C = longer survival
  survivor count: 0 of 10 on day 59
T/C endpoint: median tumor weight (est.), dose: 6.25 mg/kg/injection, schedule: Q07DX002 (ip), vehicle: distilled water + Tween-80, evaluated on day 20, higher T/C = larger tumour
  T/C: 138 % of control [9 of 10 alive]
T/C endpoint: median tumor weight (est.), dose: 12.5 mg/kg/injection, schedule: Q07DX002 (ip), vehicle: distilled water + Tween-80, evaluated on day 20, higher T/C = larger tumour
  T/C: 129 % of control
T/C endpoint: median tumor weight (est.), dose: 50.0 mg/kg/injection, schedule: Q07DX002 (ip), vehicle: distilled water + Tween-80, evaluated on day 20, higher T/C = larger tumour
  T/C: 131 % of control [9 of 10 alive]
T/C endpoint: median tumor weight (est.), dose: 400.0 mg/kg/injection, schedule: Q07DX002 (ip), vehicle: distilled water + Tween-80, higher T/C = larger tumour
  survivor count: 0 of 10 on day 20

## CC(C)(C)c1ccc(CN2CCN(C(c3ccccc3)c3ccc(Cl)cc3)CC2)cc1 (stereo not drawn)
T/C endpoint: median tumor weight (est.), dose: 128.0 mg/kg/injection, schedule: Q07DX002 (ip), vehicle: Klucel (hydroxypropylcellulose) (HPC), evaluated on day 20, higher T/C = larger tumour
  T/C: 127 % of control [9 of 10 alive on day 20]

## CCc1ccc(C2=C(O)C(=O)C(c3ccccc3)=C(O)C2=O)cc1
[5]
  survivor count: 0 of 10 on day 20
T/C endpoint: median tumor weight (est.), dose: 200.0 mg/kg/injection, schedule: Q07DX002 (ip), vehicle: Klucel (hydroxypropylcellulose) (HPC), higher T/C = larger tumour
  survivor count: 0 of 10 on day 20
[2]
  survivor count: 0 of 10 on day 20

## FC(F)(F)c1nc2nc(Cl)c(Cl)nc2[nH]1
[6]
  T/C: 125 % of control [9 of 10 alive on day 20]
[7]
  survivor count: 4 of 10 on day 20
T/C endpoint: median tumor weight (est.), dose: 200.0 mg/kg/injection, schedule: Q07DX002 (ip), vehicle: saline with Tween-80, higher T/C = larger tumour
  survivor count: 1 of 10 on day 20
[8]
  survivor count: 0 of 10 on day 20

## O=C1NC(=O)C2C3C=CC(C12)C1C2C(=O)NC(=O)C2C31 (stereo not drawn)
T/C endpoint: median tumor weight (est.), dose: 25.0 mg/kg/injection, schedule: Q07DX002 (ip), vehicle: saline with Tween-80, evaluated on day 20, higher T/C = larger tumour
  T/C: 132 and 145 % of control
[6]
  T/C: 126 % of control
[8]
  survivor count: 4 of 10 on day 20
T/C endpoint: median tumor weight (est.), dose: 800.0 mg/kg/injection, schedule: Q07DX002 (ip), vehicle: saline with Tween-80, higher T/C = larger tumour
  survivor count: 0 of 10 on day 20 and 1 of 10 on day 20

## COC1=NCN=C2SC=C(N)N=C12
T/C endpoint: median tumor weight (est.), dose: 25.0 mg/kg/injection, schedule: Q07DX003 (ip), vehicle: saline, evaluated on day 21, higher T/C = larger tumour
  T/C: 126 % of control

## O=c1n(CC2CO2)c(=O)n(CC2CO2)n1CC1CO1 (stereo not drawn)
T/C endpoint: median tumor weight (est.), dose: 100.0 mg/kg/injection, schedule: Q07DX002 (ip), vehicle: saline, higher T/C = larger tumour
  survivor count: 0 of 10 on day 20
[9]
  survivor count: 0 of 10 on day 20

## O=C(CCBr)N1CCN(C(=O)CCBr)CC1
T/C endpoint: median tumor weight (est.), dose: 640.0 mg/kg/injection, schedule: Q07DX002 (ip), vehicle: saline with Tween-80, higher T/C = larger tumour
  survivor count: 4 of 10 on day 20

## CC(=O)O[C@@H]1CO[C@H]2O[C@H]3[C@@H](C(C=O)=C[C@H](O)[C@@H]4C5=C(C(C)C)CC[C@]5(C)CC[C@@]34C)[C@@]2(O)C1=O
T/C endpoint: median tumor weight (est.), dose: 24.0 mg/kg/injection, schedule: Q07DX002 (ip), vehicle: Klucel (hydroxypropylcellulose) (HPC), higher T/C = larger tumour
  survivor count: 4 of 10 on day 20
T/C endpoint: median tumor weight (est.), dose: 48.0 mg/kg/injection, schedule: Q07DX002 (ip), vehicle: Klucel (hydroxypropylcellulose) (HPC), higher T/C = larger tumour
  survivor count: 1 of 10 on day 20

## NC(=O)Nc1cc(NC(N)=O)cc(N(CCCl)CCCl)c1
T/C endpoint: median tumor weight (est.), dose: 80.0 mg/kg/injection, schedule: Q07DX002 (ip), vehicle: Klucel (hydroxypropylcellulose) (HPC), higher T/C = larger tumour
  survivor count: 6 of 10 on day 20
T/C endpoint: median tumor weight (est.), dose: 160.0 mg/kg/injection, schedule: Q07DX002 (ip), vehicle: Klucel (hydroxypropylcellulose) (HPC), higher T/C = larger tumour
  survivor count: 0 of 10 on day 20

## CSc1ncnc2c1ncn2C1OC(CO)C(O)C1O (stereo not drawn)
T/C endpoint: median tumor weight (est.), dose: 50.0 mg/kg/injection, schedule: Q07DX002 (ip), vehicle: saline + alcohol, evaluated on day 20, higher T/C = larger tumour
  T/C: 130 % of control

## Clc1ccc(C(c2ccc(Cl)cc2)C(Cl)(Cl)Cl)cc1
T/C endpoint: median tumor weight (est.), dose: 64.0 mg/kg/injection, schedule: Q07DX002 (ip), vehicle: Klucel (hydroxypropylcellulose) (HPC), evaluated on day 20, higher T/C = larger tumour
  T/C: 127 % of control

## CCOC(=O)/N=[N+](\[O-])c1ccccc1
T/C endpoint: median tumor weight (est.), dose: 25.0 mg/kg/injection, schedule: Q07DX002 (ip), vehicle: saline with Tween-80, higher T/C = larger tumour
  survivor count: 2 of 10 on day 20
T/C endpoint: median tumor weight (est.), dose: 50.0 mg/kg/injection, schedule: Q07DX002 (ip), vehicle: saline with Tween-80, higher T/C = larger tumour
  survivor count: 0 of 10 on day 20
[7]
  survivor count: 0 of 10 on day 20

## COc1cc(NCc2ccc3nc(N)nc(N)c3c2C)cc(OC)c1OC (tested in a mixture with another compound)
T/C endpoint: median tumor weight (est.), dose: 70.0 mg/kg/injection, schedule: Q07DX002 (ip), vehicle: water, evaluated on day 20, higher T/C = larger tumour
  T/C: 125 % of control [9 of 10 alive on day 20]
T/C endpoint: median tumor weight (est.), dose: 354.0 mg/kg/injection, schedule: Q07DX002 (ip), vehicle: water, higher T/C = larger tumour
  survivor count: 0 of 10 on day 20
T/C endpoint: median tumor weight (est.), dose: 531.0 mg/kg/injection, schedule: Q07DX002 (ip), vehicle: water, higher T/C = larger tumour
  survivor count: 0 of 10 on day 20

## CC[N](CC)[Ge]([CH2]C)[CH2]C.CC[N](CC)[Ge]([CH2]C)[CH2]C
[9]
  survivor count: 0 of 10 on day 20

## CN(C)c1ccc2c(N(C)C)cc(N(C)C)nc2c1
[4]
  T/C: 147 % of control [9 of 10 alive on day 20]
[5]
  survivor count: 0 of 10 on day 20

## C=C1C(=O)C23C(O)CC4C5(C)CCCC4(C(O)OC5)C2C(OC(C)=O)CC1C3O (stereo not drawn)
T/C endpoint: median tumor weight (est.), dose: 128.0 mg/kg/injection, schedule: Q07DX002 (ip), vehicle: saline, higher T/C = larger tumour
  survivor count: 6 of 10 on day 20
T/C endpoint: median tumor weight (est.), dose: 256.0 mg/kg/injection, schedule: Q07DX002 (ip), vehicle: Klucel (hydroxypropylcellulose) (HPC), higher T/C = larger tumour
  survivor count: 0 of 10 on day 20
T/C endpoint: median tumor weight (est.), dose: 256.0 mg/kg/injection, schedule: Q07DX002 (ip), vehicle: saline, higher T/C = larger tumour
  survivor count: 0 of 10 on day 20

Reference: PubChem BioAssay AID212 (DTP/NCI, 2004)
